We go through 31 molecules from the supplement of paper PMC10735217.

Where a name gives a salt, the structure may show the parent alone. The list shows a part of the results. Repeats in this data set agree poorly, so a single value says little.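 The human kidney-derived cells carry a stably integrated construct of eight TEAD-binding elements driving luciferase, read by luminescence in a drug-repurposing library screen. A compound counts as a hit when its signal is more than five robust Z scores above the plate mean.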

For the experiment, the system named is HEK293A TEAD-LUC reporter. The experiment is described as follows: TEAD-luciferase reporter activity (YAP activation), robust Z score vs plate; higher = stronger YAP/TEAD activation. Particulars: 24 h. Background: In a reporter assay the amount or activity of a reporter protein is the signal.

For `CN(C(=O)c1cccc(F)c1)c1ccc(O)cc1`, the TEAD-luciferase reporter activity runs as follows: (compound concentration: 200 nM) inactive: 0.368; (compound concentration: 2 uM) inactive: -0.411; (compound concentration: 10 uM) inactive: 2.56.

`C=C(C)C1CC=C(CO)CC1` (stereo unspecified) [perillyl alcohol]: the TEAD-luciferase reporter activity by setting is: (compound concentration: 200 nM) inactive: 0.248; (compound concentration: 2 uM) inactive: 1.24; (compound concentration: 10 uM) inactive: -1.9.

Take `Cc1c(Cn2ccnc2)c2ccccc2n1CCC(=O)O` [Dazmegrel]: the TEAD-luciferase reporter activity is, setting by setting: (compound concentration: 200 nM) inactive: -1; (compound concentration: 2 uM) inactive: 0.76; (compound concentration: 10 uM) inactive: -0.832.

For `CC(C)OC(=O)Nc1ccc(Cl)cc1`, the TEAD-luciferase reporter activity reads like this: (compound concentration: 200 nM) inactive: -0.414; (compound concentration: 2 uM) inactive: 1.44; (compound concentration: 10 uM) inactive: 1.33.

Turning to `CC(C)(O)c1ccn2c(-c3ccc(F)c(-c4ccc(F)cc4C#N)c3)cnc2c1F`, the TEAD-luciferase reporter activity by setting is: (compound concentration: 200 nM) inactive: -0.0615; (compound concentration: 2 uM) inactive: -2.73; (compound concentration: 10 uM) inactive: -2.64.

For `Cn1c(=O)c2nc[nH]c2n(C)c1=O`, the TEAD-luciferase reporter activity (compound concentration: 2 uM) is inactive: -1.6.

On to `Cn1c(=O)c2nc[nH]c2n(C)c1=O` [Aminophylline], for which the TEAD-luciferase reporter activity reads like this: (compound concentration: 200 nM) inactive: -0.391; (compound concentration: 10 uM) inactive: -1.29.

For `Nc1ncc2ncn(CCC(CO)CO)c2n1`, the TEAD-luciferase reporter activity (compound concentration: 200 nM) is inactive: 0.511, the TEAD-luciferase reporter activity (compound concentration: 2 uM) is inactive: -0.338 and the TEAD-luciferase reporter activity (compound concentration: 10 uM) was inactive: -0.857.

In the case of `COc1ccc2[nH]c(C(=O)N3CCC(CC(C)(C)O)CC3)cc2c1`, the TEAD-luciferase reporter activity is inactive: 1.01 (compound concentration: 200 nM), inactive: -1.03 (compound concentration: 2 uM) and inactive: -0.959 (compound concentration: 10 uM).

For the molecule `CCCCCCCCCCCCCCCCCCNC(=O)OC1CCN(C(=O)OCC(COC(=O)N(Cc2cccc[n+]2CC)C(=O)c2ccccc2OC)OC)CC1` (stereo unspecified), the TEAD-luciferase reporter activity (compound concentration: 200 nM) is inactive: 0.229, the TEAD-luciferase reporter activity (compound concentration: 2 uM) was inactive: 1.09 and the TEAD-luciferase reporter activity (compound concentration: 10 uM) is inactive: 1.13.

With `CCNCCc1ccc(CN(CC)c2cc(OC)ccc2[C@@H]2CCc3cc(O)ccc3C2)cc1` [Elacestrant (dihydrochloride)], the TEAD-luciferase reporter activity was inactive: 4.65 (compound concentration: 200 nM), inactive: -1.62 (compound concentration: 2 uM) and inactive: -0.732 (compound concentration: 10 uM).

Regarding `NC[C@H]1CC[C@H](C(=O)O)CC1` [tranexamic acid, Xenoport], the TEAD-luciferase reporter activity was inactive: 0.0352 (compound concentration: 200 nM), inactive: 0.705 (compound concentration: 2 uM) and inactive: -1.99 (compound concentration: 10 uM).

For the molecule `CCn1c(SC)nnc1-c1ccncc1`, the TEAD-luciferase reporter activity (compound concentration: 200 nM) is inactive: -1.31, the TEAD-luciferase reporter activity (compound concentration: 2 uM) was inactive: -0.502 and the TEAD-luciferase reporter activity (compound concentration: 10 uM) is inactive: -0.037.

For `CC[C@@H](CO)Nc1nc(NCc2ccccc2)c2ncn(C(C)C)c2n1` [seliciclib], the TEAD-luciferase reporter activity (compound concentration: 2 uM) was inactive: -0.708.

In the case of `CCOC(=O)c1c(N)sc2c1CCN(Cc1ccccc1)C2`, the TEAD-luciferase reporter activity runs as follows: (compound concentration: 200 nM) inactive: -1.57; (compound concentration: 2 uM) inactive: 0.867; (compound concentration: 10 uM) inactive: -2.09.

Consider `O=c1c2[nH]nnc2nc2sc(CCC3CCCCC3)nn12`, for which the TEAD-luciferase reporter activity is, setting by setting: (compound concentration: 200 nM) inactive: -1.51; (compound concentration: 2 uM) inactive: 0.449; (compound concentration: 10 uM) inactive: -2.22.

`CCCCCN(CCO)c1cc(N2CCCCC2)nc2ncnn12`: the TEAD-luciferase reporter activity by setting is: (compound concentration: 200 nM) inactive: -0.344; (compound concentration: 2 uM) inactive: 1.03; (compound concentration: 10 uM) inactive: 1.11.

With `CC(C)c1c(O)cc(/C=C/c2ccccc2)cc1O`, the TEAD-luciferase reporter activity was inactive: 4.02 (compound concentration: 200 nM), inactive: 0.313 (compound concentration: 2 uM) and active: 5.11 (compound concentration: 10 uM).

On to `CO[C@@]1(NC(=O)CSCC#N)C(=O)N2C(C(=O)[O-])=C(CSc3nnnn3C)CS[C@@H]21` [Cefmetazole sodium], for which the TEAD-luciferase reporter activity by setting is: (compound concentration: 200 nM) inactive: -0.639; (compound concentration: 10 uM) inactive: 0.938.

Take `CO[C@@]1(NC(=O)CSCC#N)C(=O)N2C(C(=O)[O-])=C(CSc3nnnn3C)CS[C@@H]21` [cefmetazole]: under “compound concentration: 2 uM”, the TEAD-luciferase reporter activity is inactive: -0.308.

`OCCCCSc1ccc(Cl)cc1`: the TEAD-luciferase reporter activity (compound concentration: 200 nM) is inactive: 1.73, the TEAD-luciferase reporter activity (compound concentration: 2 uM) is inactive: -1.09 and the TEAD-luciferase reporter activity (compound concentration: 10 uM) is inactive: -0.832.

As for `CCCCCCCNC(=O)Nc1c(F)cc(F)cc1CCc1ccc(CC(C)(C)C)cc1`, the TEAD-luciferase reporter activity was inactive: -1.22 (compound concentration: 200 nM), inactive: -0.249 (compound concentration: 2 uM) and inactive: -0.61 (compound concentration: 10 uM).

Consider `Cc1onc(-c2ccccc2)c1-c1ccc(S(N)(=O)=O)cc1` [valdecoxib], for which the TEAD-luciferase reporter activity (compound concentration: 2 uM) is inactive: -1.6.

On to `Cc1onc(-c2ccccc2)c1-c1ccc(S(N)(=O)=O)cc1`, for which the TEAD-luciferase reporter activity by setting is: (compound concentration: 200 nM) inactive: 0.106; (compound concentration: 10 uM) inactive: 2.65.

In the case of `COC1/C=C/OC2(C)Oc3c(C)c(O)c4c(O)c(c(/C=N/N5CCN6CCCCC6C5)c(O)c4c3C2=O)NC(=O)/C(C)=C\C=C\C(C)C(O)C(C)C(O)C(C)C(OC(C)=O)C1C` (stereo unspecified), the TEAD-luciferase reporter activity runs as follows: (compound concentration: 200 nM) inactive: -1.34; (compound concentration: 2 uM) inactive: -1.87; (compound concentration: 10 uM) inactive: -2.68.

Regarding `CC1=C(CC(=O)O)c2cc(F)ccc2/C1=C\c1ccc(S(C)(=O)=O)cc1` [Sulindac sulfone], the TEAD-luciferase reporter activity reads like this: (compound concentration: 200 nM) inactive: 0.386; (compound concentration: 10 uM) inactive: 1.95.

Turning to `CC1=C(CC(=O)O)c2cc(F)ccc2/C1=C\c1ccc(S(C)(=O)=O)cc1` [Exisulind], the TEAD-luciferase reporter activity (compound concentration: 2 uM) was inactive: -1.06.

Take `C=CC[C@@H]1/C=C(\C)C[C@H](C)C[C@H](OC)[C@H]2O[C@@](O)(C(=O)C(=O)N3CCCC[C@H]3C(=O)O[C@H](/C(C)=C/[C@@H]3CC[C@@H](O)[C@H](OC)C3)[C@H](C)[C@@H](O)CC1=O)[C@H](C)C[C@@H]2OC` [Tacrolimus]: the TEAD-luciferase reporter activity (compound concentration: 2 uM) is inactive: 0.238.

In the case of `C=CC[C@@H]1/C=C(\C)C[C@H](C)C[C@H](OC)[C@H]2O[C@@](O)(C(=O)C(=O)N3CCCC[C@H]3C(=O)O[C@H](/C(C)=C/[C@@H]3CC[C@@H](O)[C@H](OC)C3)[C@H](C)[C@@H](O)CC1=O)[C@H](C)C[C@@H]2OC` [Tacrolimus (Fk506)], the TEAD-luciferase reporter activity by setting is: (compound concentration: 200 nM) inactive: 1.34; (compound concentration: 10 uM) inactive: 0.115.

In the case of `C=O`, the TEAD-luciferase reporter activity runs as follows: (compound concentration: 200 nM) inactive: 2.23; (compound concentration: 2 uM) inactive: 0.25; (compound concentration: 10 uM) inactive: -0.501.

Turning to `CN1C[C@H]2C[C@@H](NC(=O)c3n[nH]c4ccccc34)C[C@@H](C1)N2C`, the TEAD-luciferase reporter activity is, setting by setting: (compound concentration: 200 nM) inactive: -3.3; (compound concentration: 2 uM) inactive: 1.56; (compound concentration: 10 uM) inactive: -1.6.
